Assay results taken from patent US7998954B2, “Pyrimidodiazepinone derivative” (Kyowa Hakko Kirin Co., Ltd., priority 2007, dated 2011).
Some results were stated once for a whole list of compounds, not compound by compound. At least one structure is not confirmed: it was looked up by name or label, or the drawing left a doubt.

System: α2δ protein
Test: α2δ protein binding experiment ([3H]-gabapentin binding inhibition, rat cerebral cortex membrane fraction)
Settings: 0.1 μmol/L test compound, 20 nmol/L [3H]-Gabapentin

Row | Structure (SMILES) | inhibitory activity ([3H]-Gabapentin binding inhibition)
1 | CCNc1ncc2c(n1)N1CCC[C@H]1CN(c1cccc(N3CCN(C(C)C)CC3)c1)C2=O [Compound 154, (S)-9-Ethylamino-5-[3-(4-isopropylpiperazine-1-yl)phenyl]-1,2,3,3a,4,5-hexahydro-5,8,10,10b-tetraazabenzo[e]azulen-6-one] | ≥ 50%
2 | CCNc1ncc2c(n1)N1CCC[C@H]1CN(Cc1ccc(N3CCN(C)CC3)nc1)C2=O [Compound 180, (S)-9-Ethylamino-5-{[2-(4-methylpiperazine-1-yl)pyridin-5-yl]methyl}-1,2,3,3a,4,5-hexahydro-5,8,10,10b-tetraazabenzo[e]azulen-5-one] | ≥ 50%
